Laboratory results as given in the supplement of paper PMC12823440, “Inhibitors supercharge kinase turnover through native proteolytic circuits” (Nature, 2025).
Structures can show the parent of a compound that is named as a salt. The list shows a part of the results. The calls rarely recur for the same compound in another form.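 In K562 cells expressing nanoluciferase-fused kinases, luminescence was recorded at 4 h intervals between 2 and 18 h, normalized as percent of control with DMSO at 100% and a positive control at 0%. A significant (2 sigma) signal drop marks a time point as decreased. The authors' rule for a hit is not shown and takes in more than the number of time points.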

Protein sequences, listed by entry. Tags and fused reporters are not part of them. Lines headed by an entry give the natural chain unless they say otherwise; changes in a name come on top.
UniProt P28482, whole entry: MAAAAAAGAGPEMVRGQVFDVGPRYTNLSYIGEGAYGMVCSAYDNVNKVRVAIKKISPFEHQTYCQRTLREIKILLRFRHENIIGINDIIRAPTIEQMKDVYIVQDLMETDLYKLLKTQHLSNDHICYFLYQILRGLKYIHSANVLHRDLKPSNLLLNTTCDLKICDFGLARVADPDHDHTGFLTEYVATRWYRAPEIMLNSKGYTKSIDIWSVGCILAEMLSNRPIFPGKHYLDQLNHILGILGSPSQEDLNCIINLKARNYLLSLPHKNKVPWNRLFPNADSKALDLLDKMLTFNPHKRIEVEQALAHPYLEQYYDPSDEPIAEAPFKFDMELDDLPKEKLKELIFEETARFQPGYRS
UniProt P49137, whole entry, looked up: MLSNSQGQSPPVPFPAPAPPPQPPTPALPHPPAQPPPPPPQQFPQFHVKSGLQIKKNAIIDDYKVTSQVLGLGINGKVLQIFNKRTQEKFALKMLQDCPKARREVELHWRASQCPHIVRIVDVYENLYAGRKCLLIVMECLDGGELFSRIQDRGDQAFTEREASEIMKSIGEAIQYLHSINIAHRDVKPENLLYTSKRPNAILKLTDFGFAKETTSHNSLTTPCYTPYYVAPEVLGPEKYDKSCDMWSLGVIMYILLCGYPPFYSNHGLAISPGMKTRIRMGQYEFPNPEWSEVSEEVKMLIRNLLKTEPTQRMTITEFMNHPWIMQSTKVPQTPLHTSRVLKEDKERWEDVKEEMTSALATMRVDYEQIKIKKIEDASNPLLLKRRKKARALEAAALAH
UniProt Q9BUB5: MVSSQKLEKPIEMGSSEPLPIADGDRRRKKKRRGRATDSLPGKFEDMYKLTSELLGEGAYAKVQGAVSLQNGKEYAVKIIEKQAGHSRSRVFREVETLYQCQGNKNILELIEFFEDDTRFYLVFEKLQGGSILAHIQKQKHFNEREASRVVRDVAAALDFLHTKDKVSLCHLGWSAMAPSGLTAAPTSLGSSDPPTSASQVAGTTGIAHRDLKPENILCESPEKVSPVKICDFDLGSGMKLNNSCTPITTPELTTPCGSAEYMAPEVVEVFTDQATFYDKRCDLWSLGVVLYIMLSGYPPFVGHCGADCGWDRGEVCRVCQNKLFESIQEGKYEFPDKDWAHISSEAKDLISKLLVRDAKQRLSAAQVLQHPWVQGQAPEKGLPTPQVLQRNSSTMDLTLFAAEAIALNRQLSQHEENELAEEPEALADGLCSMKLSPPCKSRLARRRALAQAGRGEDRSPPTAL
UniProt Q96KB5: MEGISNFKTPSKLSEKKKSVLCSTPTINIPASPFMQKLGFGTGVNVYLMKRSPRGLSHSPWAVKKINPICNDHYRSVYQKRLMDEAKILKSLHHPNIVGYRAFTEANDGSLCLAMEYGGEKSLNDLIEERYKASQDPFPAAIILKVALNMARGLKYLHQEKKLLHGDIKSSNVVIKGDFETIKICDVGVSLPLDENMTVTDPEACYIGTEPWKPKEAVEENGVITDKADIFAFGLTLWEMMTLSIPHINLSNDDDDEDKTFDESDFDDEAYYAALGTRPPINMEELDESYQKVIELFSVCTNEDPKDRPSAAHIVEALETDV
UniProt P09619, whole entry: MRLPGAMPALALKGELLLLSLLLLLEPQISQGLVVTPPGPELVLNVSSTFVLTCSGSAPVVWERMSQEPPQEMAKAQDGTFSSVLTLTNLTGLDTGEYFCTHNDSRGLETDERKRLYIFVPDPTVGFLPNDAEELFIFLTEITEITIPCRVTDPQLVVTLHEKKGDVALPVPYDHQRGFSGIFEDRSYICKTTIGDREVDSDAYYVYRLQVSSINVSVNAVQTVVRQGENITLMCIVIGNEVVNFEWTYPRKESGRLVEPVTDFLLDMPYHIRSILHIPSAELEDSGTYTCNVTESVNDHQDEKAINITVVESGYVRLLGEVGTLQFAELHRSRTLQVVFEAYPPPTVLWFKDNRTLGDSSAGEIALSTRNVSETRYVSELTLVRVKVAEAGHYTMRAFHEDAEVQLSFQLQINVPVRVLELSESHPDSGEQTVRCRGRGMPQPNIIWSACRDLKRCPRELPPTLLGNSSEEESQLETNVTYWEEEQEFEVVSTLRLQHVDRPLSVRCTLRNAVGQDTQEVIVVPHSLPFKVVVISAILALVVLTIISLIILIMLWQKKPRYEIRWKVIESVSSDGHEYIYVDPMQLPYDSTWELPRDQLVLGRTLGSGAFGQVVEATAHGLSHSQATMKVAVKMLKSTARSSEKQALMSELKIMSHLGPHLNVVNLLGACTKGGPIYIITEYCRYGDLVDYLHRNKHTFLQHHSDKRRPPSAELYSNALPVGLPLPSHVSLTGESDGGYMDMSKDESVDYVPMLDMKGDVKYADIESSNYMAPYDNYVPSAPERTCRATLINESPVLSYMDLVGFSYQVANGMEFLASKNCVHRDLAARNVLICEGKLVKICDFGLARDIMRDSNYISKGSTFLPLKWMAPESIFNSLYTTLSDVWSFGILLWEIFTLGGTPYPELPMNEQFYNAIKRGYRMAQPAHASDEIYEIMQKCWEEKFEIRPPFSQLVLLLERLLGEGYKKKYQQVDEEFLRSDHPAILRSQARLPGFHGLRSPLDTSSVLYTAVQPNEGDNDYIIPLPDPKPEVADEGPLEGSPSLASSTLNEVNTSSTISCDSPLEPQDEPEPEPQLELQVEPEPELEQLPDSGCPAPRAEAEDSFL
UniProt Q15118, whole entry, looked up: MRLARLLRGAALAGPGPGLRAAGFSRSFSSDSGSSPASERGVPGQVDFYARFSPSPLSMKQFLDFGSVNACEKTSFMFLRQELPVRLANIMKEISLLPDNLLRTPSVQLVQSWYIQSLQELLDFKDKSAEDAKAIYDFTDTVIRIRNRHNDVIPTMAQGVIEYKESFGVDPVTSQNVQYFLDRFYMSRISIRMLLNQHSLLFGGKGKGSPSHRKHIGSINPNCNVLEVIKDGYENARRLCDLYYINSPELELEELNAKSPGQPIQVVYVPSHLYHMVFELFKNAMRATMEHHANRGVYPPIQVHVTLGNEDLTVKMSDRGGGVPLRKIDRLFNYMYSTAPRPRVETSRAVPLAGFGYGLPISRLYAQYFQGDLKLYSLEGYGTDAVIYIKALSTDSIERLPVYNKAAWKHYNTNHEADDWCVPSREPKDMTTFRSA
UniProt O15530: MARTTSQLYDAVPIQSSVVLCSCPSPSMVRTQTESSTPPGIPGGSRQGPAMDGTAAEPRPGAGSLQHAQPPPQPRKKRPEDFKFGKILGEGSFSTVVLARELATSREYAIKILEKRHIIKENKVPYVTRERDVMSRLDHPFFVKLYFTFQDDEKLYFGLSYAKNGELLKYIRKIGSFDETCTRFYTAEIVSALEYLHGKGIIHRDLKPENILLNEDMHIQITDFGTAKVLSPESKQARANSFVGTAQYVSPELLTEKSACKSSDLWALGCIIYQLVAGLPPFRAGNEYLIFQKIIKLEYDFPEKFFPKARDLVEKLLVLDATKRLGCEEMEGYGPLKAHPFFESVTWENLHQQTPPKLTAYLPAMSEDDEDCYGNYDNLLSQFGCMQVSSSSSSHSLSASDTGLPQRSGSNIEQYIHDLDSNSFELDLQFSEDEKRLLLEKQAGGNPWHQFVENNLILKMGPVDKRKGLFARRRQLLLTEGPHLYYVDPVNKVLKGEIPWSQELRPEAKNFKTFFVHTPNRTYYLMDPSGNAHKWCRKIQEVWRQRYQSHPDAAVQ
UniProt Q9UBF8: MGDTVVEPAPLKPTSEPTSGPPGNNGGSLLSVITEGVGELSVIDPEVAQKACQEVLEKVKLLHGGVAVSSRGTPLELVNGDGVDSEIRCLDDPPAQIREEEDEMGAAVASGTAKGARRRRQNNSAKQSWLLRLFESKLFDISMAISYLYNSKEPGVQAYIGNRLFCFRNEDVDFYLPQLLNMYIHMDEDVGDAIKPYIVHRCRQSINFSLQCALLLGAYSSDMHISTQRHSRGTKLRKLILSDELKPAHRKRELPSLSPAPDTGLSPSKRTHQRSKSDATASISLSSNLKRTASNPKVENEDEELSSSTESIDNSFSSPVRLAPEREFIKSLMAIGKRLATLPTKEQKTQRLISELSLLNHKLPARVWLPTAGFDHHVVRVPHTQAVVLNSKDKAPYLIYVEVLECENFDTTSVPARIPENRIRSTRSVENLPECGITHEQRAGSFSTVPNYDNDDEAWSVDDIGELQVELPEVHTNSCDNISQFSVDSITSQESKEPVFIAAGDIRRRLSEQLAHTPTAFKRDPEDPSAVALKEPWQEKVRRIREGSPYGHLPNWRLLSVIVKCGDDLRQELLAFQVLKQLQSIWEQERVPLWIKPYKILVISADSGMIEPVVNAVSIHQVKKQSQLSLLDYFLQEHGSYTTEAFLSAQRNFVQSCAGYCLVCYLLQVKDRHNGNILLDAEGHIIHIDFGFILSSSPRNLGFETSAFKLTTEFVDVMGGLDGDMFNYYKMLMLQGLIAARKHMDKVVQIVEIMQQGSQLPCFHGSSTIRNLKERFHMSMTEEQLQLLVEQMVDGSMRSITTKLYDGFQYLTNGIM
UniProt Q14289, whole entry, looked up: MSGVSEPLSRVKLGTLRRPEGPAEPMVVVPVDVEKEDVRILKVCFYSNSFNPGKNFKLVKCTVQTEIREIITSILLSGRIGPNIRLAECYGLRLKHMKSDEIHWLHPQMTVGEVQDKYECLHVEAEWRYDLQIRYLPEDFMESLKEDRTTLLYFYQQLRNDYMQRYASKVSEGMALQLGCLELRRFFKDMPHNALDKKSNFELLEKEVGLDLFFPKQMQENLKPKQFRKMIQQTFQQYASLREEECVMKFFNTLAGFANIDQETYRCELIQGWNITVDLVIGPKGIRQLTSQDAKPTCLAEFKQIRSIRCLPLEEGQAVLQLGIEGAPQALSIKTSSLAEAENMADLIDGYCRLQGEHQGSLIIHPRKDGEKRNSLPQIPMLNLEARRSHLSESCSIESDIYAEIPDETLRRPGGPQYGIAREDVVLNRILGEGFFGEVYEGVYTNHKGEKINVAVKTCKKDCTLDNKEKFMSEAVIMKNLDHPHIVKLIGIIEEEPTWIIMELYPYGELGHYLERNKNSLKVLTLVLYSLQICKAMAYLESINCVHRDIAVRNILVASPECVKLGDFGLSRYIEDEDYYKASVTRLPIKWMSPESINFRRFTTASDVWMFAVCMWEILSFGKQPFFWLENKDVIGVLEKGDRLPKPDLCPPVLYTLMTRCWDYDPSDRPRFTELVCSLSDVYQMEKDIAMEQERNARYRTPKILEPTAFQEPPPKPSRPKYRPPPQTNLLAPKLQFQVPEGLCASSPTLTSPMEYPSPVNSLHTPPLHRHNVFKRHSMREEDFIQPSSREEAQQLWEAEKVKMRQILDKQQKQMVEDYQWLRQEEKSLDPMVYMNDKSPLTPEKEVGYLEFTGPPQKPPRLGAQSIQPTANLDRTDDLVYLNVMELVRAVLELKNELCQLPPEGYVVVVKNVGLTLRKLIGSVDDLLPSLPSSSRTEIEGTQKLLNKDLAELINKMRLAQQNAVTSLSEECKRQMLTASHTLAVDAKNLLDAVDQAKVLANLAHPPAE

Key:
Assay in all cases: kinase-Nluc reporter destabilization hit call (1 = scored as downregulated) (binary); higher = compound decreases kinase abundance
Conditions in all cases: K562; 2-18 h
MAPK1 = MAPK1 (UniProt P28482)
MAPK4 = MAPK4 (UniProt P31152)
MAPKAPK2 = MAPKAPK2 (UniProt P49137)
MKNK1 = MKNK1 (UniProt Q9BUB5)
NTRK2 = NTRK2 (UniProt Q16620)
NTRK3 = NTRK3 (UniProt Q16288)
PAK4 = PAK4 (UniProt O96013)
PBK = PBK (UniProt Q96KB5)
PDGFRB = PDGFRB (UniProt P09619)
PDK1 = PDK1 (UniProt Q15118)
PDPK1 = PDPK1 (UniProt O15530)
PIK4CA = PIK4CA (UniProt P42356)
PIK4CB = PIK4CB (UniProt Q9UBF8)
PLK1 = PLK1 (UniProt P53350)
PRKAA1 = PRKAA1 (UniProt Q13131)
PRKCA = PRKCA (UniProt P17252)
PTK2 = PTK2 (UniProt Q05397)
PTK2B = PTK2B (UniProt Q14289)
RAF1 = RAF1 (UniProt P04049)
[1] = biological target: RAF1_S257L (clone: RAF1_mut) (UniProt P04049)

Measured: kinase-Nluc reporter destabilization hit call

Cc1cc([C@@H](C)Nc2ccccc2C(=O)O)c2nc(N3CCOCC3)cc(=O)n2c1 (10 µM)
inactive: MAPK1 = 0 | MAPK4 = 0 | MAPKAPK2 = 0 | MKNK1 = 0 | NTRK2 = 0 | NTRK3 = 0 | PAK4 = 0 | PBK 0 | PDGFRB 0 | PDK1 = 0 | PDPK1 = 0 | PIK4CA 0 | PIK4CB 0 | PLK1 = 0 | PRKAA1 = 0 | PRKCA 0 | PTK2 = 0 | PTK2B 0 | RAF1 = 0 | [1] 0

COc1cc(-c2cc(-c3ccc(N4CCNCC4)cc3)cnc2C)cc(OC)c1OC (10 µM)
inactive: MAPK1 = 0 | MAPK4 = 0 | MAPKAPK2 = 0 | MKNK1 = 0 | NTRK2 = 0 | NTRK3 = 0 | PAK4 = 0 | PBK 0 | PDGFRB 0 | PDK1 = 0 | PDPK1 = 0 | PIK4CA 0 | PIK4CB 0 | PLK1 = 0 | PRKAA1 = 0 | PRKCA 0 | PTK2 = 0 | PTK2B 0 | RAF1 = 0 | [1] 0

CC(Cc1ccc(O)c(O)c1)C(C)Cc1ccc(O)c(O)c1 (stereo not given) [Nordihydroguaiaretic acid] (2.5 µM)
inactive: MAPK1 = 0 | MAPK4 = 0 | MAPKAPK2 = 0 | MKNK1 = 0 | NTRK2 = 0 | NTRK3 = 0 | PAK4 = 0 | PBK 0 | PDGFRB 0 | PDK1 = 0 | PDPK1 = 0 | PIK4CA 0 | PIK4CB 0 | PLK1 = 0 | PRKAA1 = 0 | PRKCA 0 | PTK2 = 0 | PTK2B 0 | RAF1 = 0 | [1] 0

O=Nc1c(-c2c(O)[nH]c3cc(Br)ccc23)[nH]c2ccccc12 [GSK 3 Inhibitor IX] (2.5 µM)
inactive: MAPK1 = 0 | MAPK4 = 0 | MAPKAPK2 = 0 | MKNK1 = 0 | NTRK2 = 0 | NTRK3 = 0 | PAK4 = 0 | PBK 0 | PDGFRB 0 | PDK1 = 0 | PDPK1 = 0 | PIK4CA 0 | PIK4CB 0 | PLK1 = 0 | PRKAA1 = 0 | PRKCA 0 | PTK2 = 0 | PTK2B 0 | RAF1 = 0 | [1] 0

CO[C@H]1C[C@@H]2CC[C@@H](C)[C@@](O)(O2)C(=O)C(=O)N2CCCC[C@H]2C(=O)O[C@H]([C@H](C)C[C@@H]2CC[C@@H](OCCO)[C@H](OC)C2)CC(=O)[C@H](C)/C=C(\C)[C@@H](O)[C@@H](OC)C(=O)[C@H](C)C[C@H](C)/C=C/C=C/C=C/1C [Everolimus] (10 µM)
inactive: MAPK1 = 0 | MAPK4 = 0 | MAPKAPK2 = 0 | MKNK1 = 0 | NTRK2 = 0 | NTRK3 = 0 | PAK4 = 0 | PBK 0 | PDGFRB 0 | PDK1 = 0 | PDPK1 = 0 | PIK4CA 0 | PIK4CB 0 | PLK1 = 0 | PRKAA1 = 0 | PRKCA 0 | PTK2 = 0 | PTK2B 0 | RAF1 = 0 | [1] 0

Cc1ccc(NC(=O)Nc2cc(C(F)(F)F)ccc2F)cc1Nc1ccc2c(c1)NC(=O)/C2=C\c1ccc[nH]1 (2.5 µM)
inactive: MAPK1 = 0 | MAPK4 = 0 | MAPKAPK2 = 0 | MKNK1 = 0 | NTRK2 = 0 | NTRK3 = 0 | PAK4 = 0 | PBK 0 | PDGFRB 0 | PDK1 = 0 | PDPK1 = 0 | PIK4CA 0 | PIK4CB 0 | PLK1 = 0 | PRKAA1 = 0 | PRKCA 0 | PTK2 = 0 | PTK2B 0 | RAF1 = 0 | [1] 0

COc1cc2cc(Oc3ccc4ccc(=O)oc4c3)c(=O)oc2cc1O [Daphnoretin] (10 µM)
inactive: MAPK1 = 0 | MAPK4 = 0 | MAPKAPK2 = 0 | MKNK1 = 0 | NTRK2 = 0 | NTRK3 = 0 | PAK4 = 0 | PBK 0 | PDGFRB 0 | PDK1 = 0 | PDPK1 = 0 | PIK4CA 0 | PIK4CB 0 | PLK1 = 0 | PRKAA1 = 0 | PRKCA 0 | PTK2 = 0 | PTK2B 0 | RAF1 = 0 | [1] 0

CCCCCc1ccc(/C=C/[C@H](O)[C@@H](CO)NC)cc1 [SK1-I (hydrochloride)] (10 µM)
inactive: MAPK1 = 0 | MAPK4 = 0 | MAPKAPK2 = 0 | MKNK1 = 0 | NTRK2 = 0 | NTRK3 = 0 | PAK4 = 0 | PBK 0 | PDGFRB 0 | PDK1 = 0 | PDPK1 = 0 | PIK4CA 0 | PIK4CB 0 | PLK1 = 0 | PRKAA1 = 0 | PRKCA 0 | PTK2 = 0 | PTK2B 0 | RAF1 = 0 | [1] 0

c1ccc(Cn2c(-c3ccc(OC[C@H](C4CCNCC4)n4c(-c5ccccc5)nc5ccccc54)cc3)nc3ccccc32)cc1 [Deltarasin] (2.5 µM)
inactive: MAPK1 = 0 | MAPK4 = 0 | MAPKAPK2 = 0 | MKNK1 = 0 | NTRK2 = 0 | NTRK3 = 0 | PAK4 = 0 | PBK 0 | PDGFRB 0 | PDK1 = 0 | PDPK1 = 0 | PIK4CA 0 | PIK4CB 0 | PLK1 = 0 | PRKAA1 = 0 | PRKCA 0 | PTK2 = 0 | PTK2B 0 | RAF1 = 0 | [1] 0

Oc1c(F)cc(-c2cnccc2-c2ccc(N3CCOCC3)cc2)cc1F (10 µM)
inactive: MAPK1 = 0 | MAPK4 = 0 | MAPKAPK2 = 0 | MKNK1 = 0 | NTRK2 = 0 | NTRK3 = 0 | PAK4 = 0 | PBK 0 | PDGFRB 0 | PDK1 = 0 | PDPK1 = 0 | PIK4CA 0 | PIK4CB 0 | PLK1 = 0 | PRKAA1 = 0 | PRKCA 0 | PTK2 = 0 | PTK2B 0 | RAF1 = 0 | [1] 0

Nc1nc2c(nc(Br)n2[C@@H]2O[C@@H]3COP(=O)(O)O[C@H]3[C@H]2O)c(=O)[nH]1 [8-Bromo-cGMP (sodium)] (10 µM)
inactive: MAPK1 = 0 | MAPK4 = 0 | MAPKAPK2 = 0 | MKNK1 = 0 | NTRK2 = 0 | NTRK3 = 0 | PAK4 = 0 | PBK 0 | PDGFRB 0 | PDK1 = 0 | PDPK1 = 0 | PIK4CA 0 | PIK4CB 0 | PLK1 = 0 | PRKAA1 = 0 | PRKCA 0 | PTK2 = 0 | PTK2B 0 | RAF1 = 0 | [1] 0

Cn1c(=O)c2c(nc(S(C)(=O)=O)n2C)n(CC#Cc2cccc(O)c2)c1=O (2.5 µM)
inactive: MAPK1 = 0 | MAPK4 = 0 | MAPKAPK2 = 0 | MKNK1 = 0 | NTRK2 = 0 | NTRK3 = 0 | PAK4 = 0 | PBK 0 | PDGFRB 0 | PDK1 = 0 | PDPK1 = 0 | PIK4CA 0 | PIK4CB 0 | PLK1 = 0 | PRKAA1 = 0 | PRKCA 0 | PTK2 = 0 | PTK2B 0 | RAF1 = 0 | [1] 0

Ordered by SMILES length (rising): three of the compounds above
COc1cc2cc(Oc3ccc4ccc(=O)oc4c3)c(=O)oc2cc1O [Daphnoretin] (10 µM)
inactive: MAPK1 = 0 | MAPK4 = 0 | MAPKAPK2 = 0 | MKNK1 = 0 | NTRK2 = 0 | NTRK3 = 0 | PAK4 = 0 | PBK 0 | PDGFRB 0 | PDK1 = 0 | PDPK1 = 0 | PIK4CA 0 | PIK4CB 0 | PLK1 = 0 | PRKAA1 = 0 | PRKCA 0 | PTK2 = 0 | PTK2B 0 | RAF1 = 0 | [1] 0

Oc1c(F)cc(-c2cnccc2-c2ccc(N3CCOCC3)cc2)cc1F (10 µM)
inactive: MAPK1 = 0 | MAPK4 = 0 | MAPKAPK2 = 0 | MKNK1 = 0 | NTRK2 = 0 | NTRK3 = 0 | PAK4 = 0 | PBK 0 | PDGFRB 0 | PDK1 = 0 | PDPK1 = 0 | PIK4CA 0 | PIK4CB 0 | PLK1 = 0 | PRKAA1 = 0 | PRKCA 0 | PTK2 = 0 | PTK2B 0 | RAF1 = 0 | [1] 0

c1ccc(Cn2c(-c3ccc(OC[C@H](C4CCNCC4)n4c(-c5ccccc5)nc5ccccc54)cc3)nc3ccccc32)cc1 [Deltarasin] (2.5 µM)
inactive: MAPK1 = 0 | MAPK4 = 0 | MAPKAPK2 = 0 | MKNK1 = 0 | NTRK2 = 0 | NTRK3 = 0 | PAK4 = 0 | PBK 0 | PDGFRB 0 | PDK1 = 0 | PDPK1 = 0 | PIK4CA 0 | PIK4CB 0 | PLK1 = 0 | PRKAA1 = 0 | PRKCA 0 | PTK2 = 0 | PTK2B 0 | RAF1 = 0 | [1] 0

Continuation:

COc1cc2c(cc1O)C[C@H]1c3cc(O)c(OC)cc3CC[N@@+]1(C)C2 [Phellodendrine] (10 µM)
inactive: MAPK1 = 0 | MAPK4 = 0 | MAPKAPK2 = 0 | MKNK1 = 0 | NTRK2 = 0 | NTRK3 = 0 | PAK4 = 0 | PBK 0 | PDGFRB 0 | PDK1 = 0 | PDPK1 = 0 | PIK4CA 0 | PIK4CB 0 | PLK1 = 0 | PRKAA1 = 0 | PRKCA 0 | PTK2 = 0 | PTK2B 0 | RAF1 = 0 | [1] 0

COc1cc2nccc(Oc3ccc(NC(=O)c4cn(C(C)C)c(=O)n(-c5ccc(F)cc5)c4=O)cc3F)c2cc1OC (0.5 µM)
inactive: MAPK1 = 0 | MAPK4 = 0 | MAPKAPK2 = 0 | MKNK1 = 0 | NTRK2 = 0 | NTRK3 = 0 | PAK4 = 0 | PBK 0 | PDGFRB 0 | PDK1 = 0 | PDPK1 = 0 | PIK4CA 0 | PIK4CB 0 | PLK1 = 0 | PRKAA1 = 0 | PRKCA 0 | PTK2 = 0 | PTK2B 0 | RAF1 = 0 | [1] 0

NC[C@@](O)(c1ccc(Cl)cc1)c1ccc(-c2cn[nH]c2)cc1 (10 µM)
inactive: MAPK1 = 0 | MAPK4 = 0 | MAPKAPK2 = 0 | MKNK1 = 0 | NTRK2 = 0 | NTRK3 = 0 | PAK4 = 0 | PBK 0 | PDGFRB 0 | PDK1 = 0 | PDPK1 = 0 | PIK4CA 0 | PIK4CB 0 | PLK1 = 0 | PRKAA1 = 0 | PRKCA 0 | PTK2 = 0 | PTK2B 0 | RAF1 = 0 | [1] 0

Cn1c2cc([S+](C)[O-])sc2c2cnn(Cc3cccc(N)c3)c(=O)c21 (stereo not given) (2.5 µM)
inactive: MAPK1 = 0 | MAPK4 = 0 | MAPKAPK2 = 0 | MKNK1 = 0 | NTRK2 = 0 | NTRK3 = 0 | PAK4 = 0 | PBK 0 | PDGFRB 0 | PDK1 = 0 | PDPK1 = 0 | PIK4CA 0 | PIK4CB 0 | PLK1 = 0 | PRKAA1 = 0 | PRKCA 0 | PTK2 = 0 | PTK2B 0 | RAF1 = 0 | [1] 0
